These results are taken from PMC7819943, “Rice protein-binding microarrays: a tool to detect cis-acting elements near promoter regions in rice”.

The chains behind the UniProt entries cited, without tags or fusion partners.
UniProt Q0JBA9, entry or part of it: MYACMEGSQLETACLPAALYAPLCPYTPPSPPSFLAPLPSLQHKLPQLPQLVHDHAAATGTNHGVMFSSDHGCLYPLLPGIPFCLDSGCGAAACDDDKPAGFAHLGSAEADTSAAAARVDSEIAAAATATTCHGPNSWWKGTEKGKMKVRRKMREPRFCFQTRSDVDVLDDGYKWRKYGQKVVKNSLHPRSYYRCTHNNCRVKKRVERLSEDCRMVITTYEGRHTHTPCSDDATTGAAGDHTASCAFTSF

The list shows a part of the results.

The target of the experiment is OsWRKY34 (Oryza sativa, UniProt Q0JBA9 1-250). Description: protein-binding microarray (RPBM); PBS, 2% BSA, 51.3 ng/ul salmon testes DNA, 50 uM zinc acetate, 200 nM TF, 25 C, 1 h; high values mean tight binding. The conditions noted are these: protein: recombinant; tags: N-terminal polyhistidine and DsRed monomer fusion (pET32a); label: CyDye5-dUTP incorporated in the synthesized complementary strand; 3' TTTTT single-stranded linker to array surface; dsDNA, one strand shown. Summed up: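 Transcription factors were made in E. coli BL21-CodonPlus as N-terminal fusions to a polyhistidine tag and DsRed, then purified on Ni–NTA. After primer extension with Cy5-dUTP and blocking with 2% BSA, a custom Agilent array was exposed for 1 h at 25 °C to 200 nM protein in PBS, 2% BSA, salmon testes DNA and 50 µM zinc acetate. Washed arrays were scanned on an Axon 4000B, and the binding signal is per-feature fluorescence intensity in arbitrary units.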
Turning to “TAACTCTCTCCTAACTGTCATGGTGCTCTACACTCTTCCACGGAGTCACCTAGTGCAG”, the binding signal was 9990 fluorescence intensity (a.u.).
Under “GCGCAGGACGCGGAGGAAGAGGCGGAGGGTGGCGGAGGGGCGGAGTCACCTAGTGCAG” stands 8250 fluorescence intensity (a.u.); under “CCCACACTGCAAACACCTTAATTAGTACTACTACTAGTCACGGAGTCACCTAGTGCAG”, 9450 fluorescence intensity (a.u.).
Regarding “GCTGCTCGGATTTGATTGATTGATTGATTGGCGGGTGGTCCGGAGTCACCTAGTGCAG”, the binding signal is 8590 fluorescence intensity (a.u.).
Consider “GGGGAGTACAGCTATCATTTTGTGGTTATTTCAATATAATCGGAGTCACCTAGTGCAG”, for which the binding signal is 10800 fluorescence intensity (a.u.).
Under “CCTCGTTCTCCCTCGCCAGCGACGCCTCCTCCTTCGCCTGCGGAGTCACCTAGTGCAG” stands 8160 fluorescence intensity (a.u.); under “AGGAGTCCGATGCGGGCGACTTCTCGGGCGGGGAGGAGAACGGAGTCACCTAGTGCAG”, 8990 fluorescence intensity (a.u.).
Under “ATCGGCTGTGTTGTGACCAATGTGCCCCTGGCTCAGAAATCGGAGTCACCTAGTGCAG” stands 8690 fluorescence intensity (a.u.); under “GATCAAAATTTTAGTCTCTGATCCTAAAGTGCACATATTTCGGAGTCACCTAGTGCAG”, 8650 fluorescence intensity (a.u.); under “ATGTAAGTCATTCTAGCATTTTTTACATTCATATTGATGTCGGAGTCACCTAGTGCAG”, 9380 fluorescence intensity (a.u.).
Under “CTTGATGAGTTATACCACTTTGTTATTGATGATTTTTTTCCGGAGTCACCTAGTGCAG” stands 9700 fluorescence intensity (a.u.).
Turning to “CTTCAGGACTCTGCACTTGCTTCCATTCTACTCCGGCCATCGGAGTCACCTAGTGCAG”, the binding signal was 11300 fluorescence intensity (a.u.).
Under “GCATCGTCGCCCTCCACGTCGCCGCCGCCGCCGCCGCCGGCGGAGTCACCTAGTGCAG” stands 8450 fluorescence intensity (a.u.); under “ATTTACCTTTTAGCGTCCCTGGTTGCTTTATTTACACTATCGGAGTCACCTAGTGCAG”, 9180 fluorescence intensity (a.u.).
Consider “GTTTCTTTTTTTTTCCTGCTCACTGGATTTTCCATGTCACCGGAGTCACCTAGTGCAG”, for which the binding signal was 9700 fluorescence intensity (a.u.).
Under “GATGCGTAGCGAGTTGCATATGATCATATATATATATATACGGAGTCACCTAGTGCAG” stands 8190 fluorescence intensity (a.u.).
The result for “GTCCGGTTGAACGAGATCTATTGACGCTTGACTTGTCTCACGGAGTCACCTAGTGCAG” reads 8670 fluorescence intensity (a.u.).
Under “AATCGCTCGCACAGCCGCATCTTCCGCCGCCACGGCTTCTCGGAGTCACCTAGTGCAG” stands 10600 fluorescence intensity (a.u.); under “AAGCCATGGGGCACACTCCCATCACCAGTTTATTCCTGTACGGAGTCACCTAGTGCAG”, 8490 fluorescence intensity (a.u.).
In the case of “ATCACCAATCGTCTCTTTTTTATTTGTTGAACAAACTTATCGGAGTCACCTAGTGCAG”, the binding signal was 9540 fluorescence intensity (a.u.).
Regarding “ATCTAGCGGTCTCTTTGTTTCGTTTATACTTATATTTATCCGGAGTCACCTAGTGCAG”, the binding signal was 9550 fluorescence intensity (a.u.).
Turning to “TCCCTCCAGTGACGACACAACTGAATTCGGTGCCTTCCTTCGGAGTCACCTAGTGCAG”, the binding signal was 8340 fluorescence intensity (a.u.).
Under “AACACCCTTACTACTCCTGCTCCTACGACCGCGATCTTCTCGGAGTCACCTAGTGCAG” stands 11800 fluorescence intensity (a.u.); under “ATATCCCGCAGCGATAATCCTTTTCACTCCCACCAAAGCCCGGAGTCACCTAGTGCAG”, 11600 fluorescence intensity (a.u.); under “ACAGCCTCATCGATGTTTTTAGTTTTAGTATATACGACATCGGAGTCACCTAGTGCAG”, 8140 fluorescence intensity (a.u.).
The result for “CTGATCCTTATCTTTTGCATGTACTTAAGTCTATATAATGCGGAGTCACCTAGTGCAG” reads 10800 fluorescence intensity (a.u.).
Turning to “ATTCCTCTTGCAGTCTTGCAGCCCCAGTCAACTCCTACCCCGGAGTCACCTAGTGCAG”, the binding signal is 8330 fluorescence intensity (a.u.).
Turning to “TCCACCTCCGCCTCCGCCACAGCCGCGCCGCGCCGCTCCCCGGAGTCACCTAGTGCAG”, the binding signal is 10200 fluorescence intensity (a.u.).
The result for “CTCTCTCTCGTCGTCTCCGTCTCCGGCTTCCCCTATCCATCGGAGTCACCTAGTGCAG” reads 10300 fluorescence intensity (a.u.).
Under “AGCTTGGTGCGTCATGGTCCCACTGTTCATTACTTTCCTTCGGAGTCACCTAGTGCAG” stands 9080 fluorescence intensity (a.u.); under “TGGCTTCTTTGATTAGGTATTTATTCGACGTGTGATATTGCGGAGTCACCTAGTGCAG”, 9200 fluorescence intensity (a.u.); under “GTATGGTTGACTGAATTGTTTGACTTATCTTTGGCATTGACGGAGTCACCTAGTGCAG”, 14400 fluorescence intensity (a.u.).
With “TGTTCCTGACCTGTTAGCATGTTGCTTTTGCTGGAGTAGTCGGAGTCACCTAGTGCAG”, the binding signal was 9040 fluorescence intensity (a.u.).
Under “CCACCACCGCACAGCACCTCTCAGCTCTCACCCGCGGGGACGGAGTCACCTAGTGCAG” stands 8660 fluorescence intensity (a.u.).
In the case of “GTGTGTGGCTGACAGGTGGGCCCCGATGCATCTCCGAAAACGGAGTCACCTAGTGCAG”, the binding signal was 8970 fluorescence intensity (a.u.).
For the sequence “GGGGACAGGCATAGGGGACATCCTTCGAGAGACACGAAAACGGAGTCACCTAGTGCAG”, the binding signal is 8300 fluorescence intensity (a.u.).
With “TCACTCACCCACACAGCCACACTCGCTGTGTTTCTCCTCTCGGAGTCACCTAGTGCAG”, the binding signal is 8460 fluorescence intensity (a.u.).
The result for “TGCGCTGCTCGGGAGGGAGGGAGGGTTACTAGGAGGTTGCCGGAGTCACCTAGTGCAG” reads 14600 fluorescence intensity (a.u.).
The result for “CCTCGCCTCCGCCTCTGCCGCCGCCGCCACCGCCGCCGCCCGGAGTCACCTAGTGCAG” reads 10800 fluorescence intensity (a.u.); that for “ATCGTCCCCATCGACTGTCGTCGCTGTCAATCGGAGCCACCGGAGTCACCTAGTGCAG”, 8480 fluorescence intensity (a.u.); that for “TCCCTATTTTTAATTCTGAATTTAAGTTATTTCCTAATTACGGAGTCACCTAGTGCAG”, 9700 fluorescence intensity (a.u.).
Under “TGTGTCATATCCGGGGTTGGTTTTTTATGGGATGGAGGAACGGAGTCACCTAGTGCAG” stands 12000 fluorescence intensity (a.u.); under “TCTTTCTCCTACTCCTCCTGTGTGATGGGCTGGGCTGAGCCGGAGTCACCTAGTGCAG”, 8540 fluorescence intensity (a.u.).
Regarding “TCTCGCGCGCGACGCCGCCGCCGCCTCGCCGCCGGCGATGCGGAGTCACCTAGTGCAG”, the binding signal was 8020 fluorescence intensity (a.u.).
“ACTGGACATTGTCGCCGGTGCCTCGCTCCTGTCGGCGCCCCGGAGTCACCTAGTGCAG”: the binding signal was 10400 fluorescence intensity (a.u.).
Under “GGCCTTGGTAGCTGACATGTGGTCCCAGCCGGCTATCCACCGGAGTCACCTAGTGCAG” stands 9000 fluorescence intensity (a.u.); under “ACCAGACCGCATTCTCTTTTTTTTTGCTATTATTTTCAAACGGAGTCACCTAGTGCAG”, 11000 fluorescence intensity (a.u.).
Turning to “CCGTTTGATTGTTTGTCTGGCGTTAATTTTCGCGAACTGCCGGAGTCACCTAGTGCAG”, the binding signal is 13600 fluorescence intensity (a.u.).
Under “TCCAAACTTCCAACTTTTCCTTCACATTATTTCAATTTCACGGAGTCACCTAGTGCAG” stands 8460 fluorescence intensity (a.u.); under “TTTTTCTGTCTGTTTTATGTACATGTATATGTTTTTTCTTCGGAGTCACCTAGTGCAG”, 12100 fluorescence intensity (a.u.); under “ACGATTGCTGACCAAGTGACCAGTGTCCGTTTTCTCCGACCGGAGTCACCTAGTGCAG”, 9630 fluorescence intensity (a.u.).
The result for “CATGTCTTTTTTATAGGGCTTGCGTCGTCTTGTCTTGCCTCGGAGTCACCTAGTGCAG” reads 8670 fluorescence intensity (a.u.); that for “CATTTTTTCCCCATGGATTTCAGTTGTCTTCTATGATTTGCGGAGTCACCTAGTGCAG”, 8100 fluorescence intensity (a.u.).
Regarding “CACCGGCGCGCATTTTTTCTGGGGATAAGGTGGTTAGACTCGGAGTCACCTAGTGCAG”, the binding signal is 8890 fluorescence intensity (a.u.).
